Results are given in words; binding and its absence hold for the method and conditions named. Binding seen in cells or lysates may run through a third protein. Some results given as binding are weak or reduced against the parent protein; the word gives no strength.

By UniProt entry, the sequences of proteins in these tests, tags left out. Residues count along the entry.
UniProt Q05397: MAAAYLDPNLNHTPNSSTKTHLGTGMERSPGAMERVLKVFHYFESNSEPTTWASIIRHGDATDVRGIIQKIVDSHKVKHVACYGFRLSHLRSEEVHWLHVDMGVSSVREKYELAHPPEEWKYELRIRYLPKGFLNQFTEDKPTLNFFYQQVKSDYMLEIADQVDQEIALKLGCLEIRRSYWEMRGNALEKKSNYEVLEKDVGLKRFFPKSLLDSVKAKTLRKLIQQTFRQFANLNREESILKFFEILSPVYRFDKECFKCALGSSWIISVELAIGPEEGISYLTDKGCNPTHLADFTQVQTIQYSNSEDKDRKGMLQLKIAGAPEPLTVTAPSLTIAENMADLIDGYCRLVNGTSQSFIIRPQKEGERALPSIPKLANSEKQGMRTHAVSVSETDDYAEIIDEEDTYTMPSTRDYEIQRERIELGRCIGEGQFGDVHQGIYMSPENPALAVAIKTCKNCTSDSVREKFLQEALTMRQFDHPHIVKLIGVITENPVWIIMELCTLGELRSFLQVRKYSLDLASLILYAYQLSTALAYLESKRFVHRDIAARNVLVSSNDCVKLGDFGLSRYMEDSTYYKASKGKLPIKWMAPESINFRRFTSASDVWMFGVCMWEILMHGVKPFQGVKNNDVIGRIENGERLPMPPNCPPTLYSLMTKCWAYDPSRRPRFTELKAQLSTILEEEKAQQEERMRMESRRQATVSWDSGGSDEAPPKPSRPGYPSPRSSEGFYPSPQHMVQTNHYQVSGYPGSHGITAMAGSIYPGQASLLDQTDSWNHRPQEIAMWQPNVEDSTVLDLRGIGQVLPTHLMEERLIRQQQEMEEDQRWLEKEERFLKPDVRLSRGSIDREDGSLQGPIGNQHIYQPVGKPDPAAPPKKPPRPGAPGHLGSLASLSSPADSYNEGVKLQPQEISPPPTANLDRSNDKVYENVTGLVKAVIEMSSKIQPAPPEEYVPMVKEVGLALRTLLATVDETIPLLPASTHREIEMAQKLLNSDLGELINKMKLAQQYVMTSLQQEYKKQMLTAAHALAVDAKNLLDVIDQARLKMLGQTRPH
UniProt P08069, residues 741-1367: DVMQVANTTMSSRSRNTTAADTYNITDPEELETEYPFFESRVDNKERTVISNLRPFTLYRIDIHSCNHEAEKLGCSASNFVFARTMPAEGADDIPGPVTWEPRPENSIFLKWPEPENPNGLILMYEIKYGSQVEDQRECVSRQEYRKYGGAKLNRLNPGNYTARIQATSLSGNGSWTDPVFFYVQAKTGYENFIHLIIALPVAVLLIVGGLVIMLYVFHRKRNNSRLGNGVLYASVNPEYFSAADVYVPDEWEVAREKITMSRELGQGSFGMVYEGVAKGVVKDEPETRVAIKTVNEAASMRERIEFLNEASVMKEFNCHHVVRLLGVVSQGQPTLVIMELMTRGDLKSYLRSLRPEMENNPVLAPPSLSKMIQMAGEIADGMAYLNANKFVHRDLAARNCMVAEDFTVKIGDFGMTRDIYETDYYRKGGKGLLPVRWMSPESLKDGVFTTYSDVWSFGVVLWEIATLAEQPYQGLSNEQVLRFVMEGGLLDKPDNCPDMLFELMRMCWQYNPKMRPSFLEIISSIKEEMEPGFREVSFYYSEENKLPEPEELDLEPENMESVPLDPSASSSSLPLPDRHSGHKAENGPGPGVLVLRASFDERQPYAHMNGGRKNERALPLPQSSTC

Among the data in article PMC6048049 are binding values, retold here.

The target of this assay is T1, Tescalcin (human (endogenous in A549)) (UniProt Q96BS2).
T1 sequence: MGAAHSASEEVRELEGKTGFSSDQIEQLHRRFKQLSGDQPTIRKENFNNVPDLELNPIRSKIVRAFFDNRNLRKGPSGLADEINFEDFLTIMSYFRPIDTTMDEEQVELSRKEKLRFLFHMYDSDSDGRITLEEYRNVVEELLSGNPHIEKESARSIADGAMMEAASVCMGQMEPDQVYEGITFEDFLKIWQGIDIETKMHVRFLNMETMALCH
Kind of assay: co-IP; endogenous proteins in A549 cells; NP-40 lysis buffer with protease inhibitors; lysate incubated with antibody against TESC or c-Src overnight at 4 °C, protein A/G agarose beads 4 h, three washes, immunoblot; c-Src/IGF1Rβ also in cells treated with TESC siRNA. For orientation: A western blot detects proteins with antibodies after separation by electrophoresis.

With “focal adhesion kinase (from UniProt Q05397 1-1052) (enzyme)”, the binding entry is recorded as “no binding”.
In the case of “insulin-like growth factor 1 receptor β (from UniProt P08069 741-1367)” it was “binds”.
